Source: PubChem BioAssay AID192 (DTP/NCI, 2004)
The list shows only some results of the screen, not a fair sample: it is rich in T/C values a quarter to a half above the control, in often repeated tests (any T/C) and in doses without a T/C. Further doses and runs are listed elsewhere. T/C gives the treated animals as a percentage of the vehicle group. Some doses have a count of surviving animals in place of a T/C: the source files T/C as zero there, which appears to mark a toxic dose or a test without result, not a measured value. Some survivor counts are full or nearly so, which does not show that the dose was tolerated: survival well below the control is almost never listed, so the zero probably covers shortened survival too. Survivors were counted at the toxicity check, usually on the fifth day, unless a day is given; later deaths do not show. Schedule codes are those of the source, read here as Q, the interval in days (D) or hours (H), X, the number of doses. Brackets with × say how often a value occurs here. Some doses were run more than once; their values stand side by side, smallest first. Where survival is the endpoint, the PubChem record calls one and a half times the control and up active, and a quarter to a half above the control has no call in these data; cut-offs in other NCI protocols can differ. Some T/C values are followed by the survivors on the day toxicity was checked, most often the fifth; without a count, all were alive then. Numbered stars: 1 amine (or outer) side, 2 acyl side, 3 side chain; on linkers, the order of the positions; unused ones are H or OH. Bridge positions count the residues as written; N and C are the ends. Square brackets hold non-standard residues; d marks the D form. Peptide text beside a SMILES is read from it. I, II: the chains in the order shown. Actinocin(9to1) = Cc1c2oc3c(C)ccc(C(=O)[*:1])c3nc-2c(C(=O)[*:2])c(N)c1=O; aThr = C[C@H](O)[C@H](N)C(=O)O; NMeV = CN[C@H](C(=O)O)C(C)C; Sar = CNCC(=O)O

Test system: BDF1 mice, B16 melanoma ip, median survival T/C
Assay: NCI In Vivo Anticancer Drug Screen. Data for tumor model B16 Melanoma (intraperitoneal) in B6D2F1 (BDF1) mice
Conditions: T/C endpoint: median survival time, higher T/C = longer survival
In short: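 Compounds were tested in mice carrying transplantable tumors. Survival or tumor size was recorded, and each value is the treated-group measurement (T) divided by that of the vehicle-treated control group (C).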

Cc1c2oc3c(C)ccc(C(=O)N[C@@H]4C(=O)N[C@H](C(C)C)C(=O)N5CCC[C@H]5C(=O)N(C)CC(=O)N(C)[C@@H](C(C)C)C(=O)O[C@H]4C)c3nc-2c(C(=O)N[C@@H]2C(=O)N[C@H](C(C)C)C(=O)N3CCC[C@H]3C(=O)N(C)CC(=O)N(C)[C@@H](C(C)C)C(=O)O[C@H]2C)c(N)c1=O (I: [aThr][dV]P[Sar][NMeV] / II: [aThr][dV]P[Sar][NMeV]; ester I:1-I:C, II:1-II:C; linker I:N-II:N via Actinocin(9to1))
T/C (dose: 30.0 micrograms/kg/injection, schedule: Q01DX009 (ip), vehicle: saline): 134 % of control | T/C (dose: 32.0 micrograms/kg/injection, schedule: Q04DX003 (ip), vehicle: saline): 130 % of control | T/C (dose: 36.0 micrograms/kg/injection, schedule: Q01DX009 (ip), vehicle: saline + alcohol): 140 % of control | T/C (dose: 37.5 micrograms/kg/injection, schedule: Q04DX003 (ip), vehicle: saline + alcohol, evaluated on day 45): 106, 108, 124, 125 % of control | T/C (dose: 37.5 micrograms/kg/injection, schedule: Q04DX003 (ip), vehicle: saline + alcohol, evaluated on day 60): 128 % of control | T/C (dose: 50.0 micrograms/kg/injection, schedule: Q01DX009 (ip), vehicle: saline, evaluated on day 45): 133 and 154 % of control | T/C (dose: 50.0 micrograms/kg/injection, schedule: Q01DX009 (ip), vehicle: saline, evaluated on day 60): 91, 102, 107, 109 [5 of 6 alive], 113, 116, 116 [5 of 6 alive], 120, 128, 135, 136, 152, 153, 155, 161, 163, 164, 164 [9 of 10 alive], 165, 165 [9 of 10 alive], 175 (2×), 176, 177, 196 % of control | survivor count (dose: 50.0 micrograms/kg/injection, schedule: Q01DX009 (ip), vehicle: saline): 2 of 6, 3 of 6, 5 of 6, 6 of 6 | T/C (dose: 50.0 micrograms/kg/injection, schedule: Q01DX009 (ip), vehicle: water): 133 % of control | survivor count (dose: 64.0 micrograms/kg/injection, schedule: Q01DX009 (ip), vehicle: saline): 10 of 10 | survivor count (dose: 64.0 micrograms/kg/injection, schedule: Q01DX017 (ip), vehicle: saline): 10 of 10 | T/C (dose: 64.0 micrograms/kg/injection, schedule: Q04DX003 (ip), vehicle: saline): 130 % of control | T/C (dose: 64.8 micrograms/kg/injection, schedule: Q04DX003 (ip), vehicle: saline + alcohol): 144 % of control | T/C (dose: 75.0 micrograms/kg/injection, schedule: Q01DX009 (ip), vehicle: saline + alcohol): 142 % of control | T/C (dose: 75.0 micrograms/kg/injection, schedule: Q04DX003 (ip), vehicle: saline + alcohol, evaluated on day 45): 128, 133, 152, 154 % of control | T/C (dose: 75.0 micrograms/kg/injection, schedule: Q04DX003 (ip), vehicle: saline + alcohol, evaluated on day 60): 133 % of control | T/C (dose: 75.0 micrograms/kg/injection, schedule: Q04DX003 (ip), vehicle: saline): 128 % of control | survivor count (dose: 100.0 micrograms/kg/injection, schedule: Q01DX009 (ip), vehicle: saline + alcohol): 8 of 8 | T/C (dose: 100.0 micrograms/kg/injection, schedule: Q01DX009 (ip), vehicle: saline, evaluated on day 45): 126 and 181 % of control | T/C (dose: 100.0 micrograms/kg/injection, schedule: Q01DX009 (ip), vehicle: saline, evaluated on day 60): 88, 90, 116, 121, 125, 132, 134, 143, 168 [9 of 10 alive], 169, 179, 186, 212 % of control | survivor count (dose: 100.0 micrograms/kg/injection, schedule: Q01DX009 (ip), vehicle: saline): 0 of 6, 3 of 6, 4 of 6, 5 of 6, 9 of 10, 10 of 10 (2×), 6 of 6 | survivor count (dose: 100.0 micrograms/kg/injection, schedule: Q01DX009 (ip), vehicle: water): 10 of 10 (2×) | T/C (dose: 112.5 micrograms/kg/injection, schedule: Q04DX003 (ip), vehicle: saline): 139 and 140 % of control | T/C (dose: 128.0 micrograms/kg/injection, schedule: Q01DX001 (ip), vehicle: saline): 130 % of control | survivor count (dose: 128.0 micrograms/kg/injection, schedule: Q01DX009 (ip), vehicle: saline): 8 of 10 | survivor count (dose: 128.0 micrograms/kg/injection, schedule: Q01DX017 (ip), vehicle: saline): 10 of 10 | survivor count (dose: 139.0 micrograms/kg/injection, schedule: Q01DX009 (ip), vehicle: saline): 10 of 10 | T/C (dose: 150.0 micrograms/kg/injection, schedule: Q04DX003 (ip), vehicle: saline + alcohol, evaluated on day 45): 125, 142, 162, 184 % of control | T/C (dose: 150.0 micrograms/kg/injection, schedule: Q04DX003 (ip), vehicle: saline + alcohol, evaluated on day 60): 116, 164, 177 % of control | T/C (dose: 150.0 micrograms/kg/injection, schedule: Q04DX003 (ip), vehicle: saline): 141 % of control | T/C (dose: 150.0 micrograms/kg/injection, schedule: Q04DX003 (ip), vehicle: water): 128 % of control | survivor count (dose: 200.0 micrograms/kg/injection, schedule: Q01DX009 (ip), vehicle: saline): 6 of 10 (2×), 8 of 10, 5 of 6, 10 of 10 (2×) | survivor count (dose: 200.0 micrograms/kg/injection, schedule: Q01DX009 (ip), vehicle: water): 10 of 10 | survivor count (dose: 225.0 micrograms/kg/injection, schedule: Q04DX003 (ip), vehicle: saline + alcohol): 8 of 8 | T/C (dose: 225.0 micrograms/kg/injection, schedule: Q04DX003 (ip), vehicle: saline): 128 % of control | T/C (dose: 256.0 micrograms/kg/injection, schedule: Q01DX001 (ip), vehicle: saline): 145 % of control | survivor count (dose: 256.0 micrograms/kg/injection, schedule: Q01DX005 (ip), vehicle: saline): 10 of 10 | T/C (dose: 300.0 micrograms/kg/injection, schedule: Q04DX003 (ip), vehicle: saline + alcohol, evaluated on day 45): 156, 171, 173, 179 % of control | T/C (dose: 300.0 micrograms/kg/injection, schedule: Q04DX003 (ip), vehicle: saline + alcohol, evaluated on day 60): 100 and 177 % of control | T/C (dose: 300.0 micrograms/kg/injection, schedule: Q04DX003 (ip), vehicle: saline + alcohol, evaluated on day 70): 175 % of control | survivor count (dose: 300.0 micrograms/kg/injection, schedule: Q04DX003 (ip), vehicle: saline + alcohol): 7 of 8, 10 of 10, 8 of 8 | survivor count (dose: 300.0 micrograms/kg/injection, schedule: Q04DX003 (ip), vehicle: saline): 10 of 10 | survivor count (dose: 400.0 micrograms/kg/injection, schedule: Q01DX009 (ip), vehicle: saline): 9 of 10 | survivor count (dose: 450.0 micrograms/kg/injection, schedule: Q04DX003 (ip), vehicle: saline + alcohol): 8 of 8 | survivor count (dose: 450.0 micrograms/kg/injection, schedule: Q04DX003 (ip), vehicle: saline): 10 of 10 | survivor count (dose: 500.0 micrograms/kg/injection, schedule: Q04DX003 (ip), vehicle: saline + alcohol): 2 of 7 and 10 of 10 | survivor count (dose: 512.0 micrograms/kg/injection, schedule: Q01DX005 (ip), vehicle: saline): 10 of 10 | survivor count (dose: 512.0 micrograms/kg/injection, schedule: Q04DX003 (ip), vehicle: saline): 9 of 10 | T/C (dose: 600.0 micrograms/kg/injection, schedule: Q04DX003 (ip), vehicle: saline + alcohol, evaluated on day 45): 169, 188, 196 % of control | T/C (dose: 600.0 micrograms/kg/injection, schedule: Q04DX003 (ip), vehicle: saline + alcohol, evaluated on day 60): 204 % of control | survivor count (dose: 600.0 micrograms/kg/injection, schedule: Q04DX003 (ip), vehicle: saline + alcohol): 8 of 10 | survivor count (dose: 600.0 micrograms/kg/injection, schedule: Q04DX003 (ip), vehicle: water): 10 of 10
